Data from publication PMC7042231.
Results are given in words; binding and its absence hold for the method and conditions named. Binding seen in cells or lysates may run through a third protein. Some entries that bind do so weakly or less than the wild type. Tags and fused reporters may be left off the sequences shown.

Sequences of proteins named here, by UniProt entry; tags and fusion partners are left off. A change or cut given only in a name is not applied to a line headed by its entry. A line that says so, or that is headed by a name, gives the form on record, which may keep a tag or linker.
UniProt Q8N3C0: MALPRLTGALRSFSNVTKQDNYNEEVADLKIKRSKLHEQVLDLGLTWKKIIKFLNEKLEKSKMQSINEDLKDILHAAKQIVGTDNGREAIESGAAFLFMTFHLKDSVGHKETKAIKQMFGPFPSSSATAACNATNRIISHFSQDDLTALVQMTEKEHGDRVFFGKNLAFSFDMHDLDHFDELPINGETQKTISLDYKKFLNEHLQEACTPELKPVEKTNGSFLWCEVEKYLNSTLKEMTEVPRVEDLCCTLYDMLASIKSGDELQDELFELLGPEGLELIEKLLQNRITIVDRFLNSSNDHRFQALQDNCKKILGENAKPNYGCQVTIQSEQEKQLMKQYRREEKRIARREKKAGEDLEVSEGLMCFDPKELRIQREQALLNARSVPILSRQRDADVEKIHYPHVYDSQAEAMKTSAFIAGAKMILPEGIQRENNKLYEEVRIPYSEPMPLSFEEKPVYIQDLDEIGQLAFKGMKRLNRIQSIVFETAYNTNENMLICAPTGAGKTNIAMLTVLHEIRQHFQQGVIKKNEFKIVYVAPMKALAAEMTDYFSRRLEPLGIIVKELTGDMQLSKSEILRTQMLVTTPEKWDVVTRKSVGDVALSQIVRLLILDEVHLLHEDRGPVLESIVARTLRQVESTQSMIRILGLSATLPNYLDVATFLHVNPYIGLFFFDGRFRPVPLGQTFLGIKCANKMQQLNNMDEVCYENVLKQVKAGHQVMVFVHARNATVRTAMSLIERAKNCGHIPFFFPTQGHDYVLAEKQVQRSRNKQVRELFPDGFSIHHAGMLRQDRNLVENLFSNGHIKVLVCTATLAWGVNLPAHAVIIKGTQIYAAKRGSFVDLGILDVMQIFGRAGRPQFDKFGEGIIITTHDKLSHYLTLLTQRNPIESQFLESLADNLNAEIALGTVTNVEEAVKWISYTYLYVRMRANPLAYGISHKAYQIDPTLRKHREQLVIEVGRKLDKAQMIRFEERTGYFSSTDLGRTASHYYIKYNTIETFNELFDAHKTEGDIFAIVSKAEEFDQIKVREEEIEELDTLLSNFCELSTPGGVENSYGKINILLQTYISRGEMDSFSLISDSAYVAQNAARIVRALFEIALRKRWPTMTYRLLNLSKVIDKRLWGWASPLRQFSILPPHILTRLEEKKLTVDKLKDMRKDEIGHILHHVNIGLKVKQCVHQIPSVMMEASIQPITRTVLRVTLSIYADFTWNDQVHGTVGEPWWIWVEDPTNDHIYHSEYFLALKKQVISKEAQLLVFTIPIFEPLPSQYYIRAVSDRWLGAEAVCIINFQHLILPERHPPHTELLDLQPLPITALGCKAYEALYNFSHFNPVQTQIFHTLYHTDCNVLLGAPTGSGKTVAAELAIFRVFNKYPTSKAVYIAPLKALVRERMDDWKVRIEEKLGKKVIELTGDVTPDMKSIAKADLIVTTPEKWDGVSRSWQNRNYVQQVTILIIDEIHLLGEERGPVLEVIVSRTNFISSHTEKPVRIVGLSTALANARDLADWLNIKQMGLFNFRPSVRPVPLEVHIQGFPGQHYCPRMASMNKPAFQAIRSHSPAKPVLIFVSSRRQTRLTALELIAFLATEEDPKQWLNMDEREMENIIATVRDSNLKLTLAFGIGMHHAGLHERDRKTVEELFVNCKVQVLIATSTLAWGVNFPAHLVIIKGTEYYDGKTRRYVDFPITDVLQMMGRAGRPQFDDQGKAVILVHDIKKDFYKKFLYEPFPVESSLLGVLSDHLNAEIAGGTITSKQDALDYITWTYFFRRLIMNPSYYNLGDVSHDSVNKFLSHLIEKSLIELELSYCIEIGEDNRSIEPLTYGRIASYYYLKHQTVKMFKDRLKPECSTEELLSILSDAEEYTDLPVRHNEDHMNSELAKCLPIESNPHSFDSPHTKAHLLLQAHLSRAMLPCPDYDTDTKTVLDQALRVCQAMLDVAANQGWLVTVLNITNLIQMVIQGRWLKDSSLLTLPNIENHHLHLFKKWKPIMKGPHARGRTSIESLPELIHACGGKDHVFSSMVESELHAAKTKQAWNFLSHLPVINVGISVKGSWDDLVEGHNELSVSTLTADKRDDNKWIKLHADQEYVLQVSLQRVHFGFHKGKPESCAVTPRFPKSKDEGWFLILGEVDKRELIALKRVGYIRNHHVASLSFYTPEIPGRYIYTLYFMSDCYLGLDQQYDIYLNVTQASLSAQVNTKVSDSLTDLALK
ASCC1, 3xFLAG-tagged (Q8N9N2-2, form named): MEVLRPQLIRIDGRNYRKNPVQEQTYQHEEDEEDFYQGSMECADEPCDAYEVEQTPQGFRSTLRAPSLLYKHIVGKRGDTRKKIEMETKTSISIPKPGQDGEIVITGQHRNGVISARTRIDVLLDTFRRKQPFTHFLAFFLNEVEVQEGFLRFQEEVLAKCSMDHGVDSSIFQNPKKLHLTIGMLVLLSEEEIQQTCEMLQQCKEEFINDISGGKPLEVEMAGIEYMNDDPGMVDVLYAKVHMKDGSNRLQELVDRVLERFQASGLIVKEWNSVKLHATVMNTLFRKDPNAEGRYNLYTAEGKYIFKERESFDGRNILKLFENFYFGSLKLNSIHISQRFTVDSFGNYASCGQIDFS

Columns and labels:
[1] = target: T1, ASCC2, 3xFLAG-tagged (human) (UniProt Q9H1I8); assay: co-IP; one FLAG-tagged bait overexpressed with the other proteins HA-tagged in HEK293T; lysate in LB100 (50 mM Tris-HCl pH 7.5, 100 mM NaCl, 10 mM MgCl2, 2% NP-40); anti-FLAG antibody beads, eluted with FLAG peptide, blots anti-FLAG and anti-HA; ASCC3, ASCC2 and TRIP4 also in KD control and ASCC1 knock-down cells (Fig. 4B-D)
T1 sequence: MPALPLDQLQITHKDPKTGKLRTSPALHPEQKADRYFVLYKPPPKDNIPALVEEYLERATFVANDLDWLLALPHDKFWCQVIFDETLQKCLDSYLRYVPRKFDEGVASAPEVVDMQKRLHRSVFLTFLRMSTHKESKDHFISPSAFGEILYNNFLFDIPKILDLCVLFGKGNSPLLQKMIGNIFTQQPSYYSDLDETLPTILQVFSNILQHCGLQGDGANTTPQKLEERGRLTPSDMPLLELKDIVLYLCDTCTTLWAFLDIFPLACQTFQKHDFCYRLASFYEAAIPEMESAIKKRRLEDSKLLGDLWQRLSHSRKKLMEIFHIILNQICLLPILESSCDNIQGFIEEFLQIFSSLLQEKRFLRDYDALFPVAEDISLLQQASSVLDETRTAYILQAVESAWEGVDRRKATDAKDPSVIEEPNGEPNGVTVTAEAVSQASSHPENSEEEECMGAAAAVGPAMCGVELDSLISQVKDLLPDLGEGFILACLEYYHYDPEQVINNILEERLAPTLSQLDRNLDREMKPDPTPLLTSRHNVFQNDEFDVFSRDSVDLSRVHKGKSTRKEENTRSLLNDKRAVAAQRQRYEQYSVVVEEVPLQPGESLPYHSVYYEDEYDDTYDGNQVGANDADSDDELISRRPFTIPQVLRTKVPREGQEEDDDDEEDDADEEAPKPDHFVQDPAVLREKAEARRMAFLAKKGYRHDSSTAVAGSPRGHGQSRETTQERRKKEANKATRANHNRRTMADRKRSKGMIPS

[2] = target: T2, TRIP4 (TR-interacting protein 4 / ASC-1), 3xFLAG-tagged (human) (UniProt Q15650); assay: as above
T2 sequence: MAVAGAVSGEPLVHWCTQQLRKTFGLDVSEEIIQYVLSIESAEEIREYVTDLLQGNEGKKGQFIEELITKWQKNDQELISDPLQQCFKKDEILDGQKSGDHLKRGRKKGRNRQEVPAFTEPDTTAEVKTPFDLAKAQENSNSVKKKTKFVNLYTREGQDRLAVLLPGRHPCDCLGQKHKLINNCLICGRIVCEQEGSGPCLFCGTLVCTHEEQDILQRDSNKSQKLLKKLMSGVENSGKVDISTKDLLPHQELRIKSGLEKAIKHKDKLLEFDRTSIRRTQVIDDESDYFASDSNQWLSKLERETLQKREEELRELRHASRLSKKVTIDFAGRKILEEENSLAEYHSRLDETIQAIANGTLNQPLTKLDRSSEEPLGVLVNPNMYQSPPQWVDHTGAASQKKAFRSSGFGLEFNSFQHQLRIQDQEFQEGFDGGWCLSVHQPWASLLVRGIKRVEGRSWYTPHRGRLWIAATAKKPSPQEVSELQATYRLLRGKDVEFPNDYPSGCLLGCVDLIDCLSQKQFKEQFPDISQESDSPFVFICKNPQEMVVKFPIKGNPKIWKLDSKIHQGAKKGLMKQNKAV

[3] = target: activating signal cointegrator 3 (ASCC3), 3xFLAG-tagged (human) (UniProt Q8N3C0); assay: as above
[4] = target: ASCC1, 3xFLAG-tagged (human) (UniProt Q8N9N2); assay: as above
[5] = target: FLAG-ASCC3 K505R mutant (human) (UniProt Q8N3C0); assay: co-IP; only HA-ASCC2 (WT or Ub-m) and FLAG-ASCC3 (WT or K505R) co-transfected into HEK293T; anti-FLAG antibody beads, eluted with FLAG peptide, blots anti-FLAG and anti-HA
FLAG-ASCC3-WT (human) = FLAG-ASCC3-WT (human) (UniProt Q8N3C0); assay: as above
[6] = target: activating signal cointegrator 3 (ASCC3), 3xFLAG-tagged (human) (UniProt Q8N3C0); assay: as above

Measured: binding

ASCC1, HA-tagged (from UniProt Q8N9N2-2 1-357)
binds: [1] | [2] | [3]

activating signal cointegrator 3 (ASCC3), HA-tagged (from UniProt Q8N3C0-1 1-2202)
binds: [4] | [1] | [2]

B1: ASCC2, HA-tagged (protein, UniProt Q9H1I8-1 1-757)
chain: T1 sequence
not listed: [1]
binds: all other assays above

B2: TRIP4 (TR-interacting protein 4 / ASC-1), HA-tagged (protein, UniProt Q15650 1-581)
chain: T2 sequence
binds: [4] | [1] | [3]
